Measurements reported in US6709838.
These are yes or no findings as the source states them, for the method shown. Some results given as binding are weak or reduced against the parent protein; the word gives no strength.

Sequences of proteins named here, by UniProt entry; tags and fusion partners are left off. A change or cut given only in a name is not applied to a line headed by its entry.
UniProt Q9Y6C5: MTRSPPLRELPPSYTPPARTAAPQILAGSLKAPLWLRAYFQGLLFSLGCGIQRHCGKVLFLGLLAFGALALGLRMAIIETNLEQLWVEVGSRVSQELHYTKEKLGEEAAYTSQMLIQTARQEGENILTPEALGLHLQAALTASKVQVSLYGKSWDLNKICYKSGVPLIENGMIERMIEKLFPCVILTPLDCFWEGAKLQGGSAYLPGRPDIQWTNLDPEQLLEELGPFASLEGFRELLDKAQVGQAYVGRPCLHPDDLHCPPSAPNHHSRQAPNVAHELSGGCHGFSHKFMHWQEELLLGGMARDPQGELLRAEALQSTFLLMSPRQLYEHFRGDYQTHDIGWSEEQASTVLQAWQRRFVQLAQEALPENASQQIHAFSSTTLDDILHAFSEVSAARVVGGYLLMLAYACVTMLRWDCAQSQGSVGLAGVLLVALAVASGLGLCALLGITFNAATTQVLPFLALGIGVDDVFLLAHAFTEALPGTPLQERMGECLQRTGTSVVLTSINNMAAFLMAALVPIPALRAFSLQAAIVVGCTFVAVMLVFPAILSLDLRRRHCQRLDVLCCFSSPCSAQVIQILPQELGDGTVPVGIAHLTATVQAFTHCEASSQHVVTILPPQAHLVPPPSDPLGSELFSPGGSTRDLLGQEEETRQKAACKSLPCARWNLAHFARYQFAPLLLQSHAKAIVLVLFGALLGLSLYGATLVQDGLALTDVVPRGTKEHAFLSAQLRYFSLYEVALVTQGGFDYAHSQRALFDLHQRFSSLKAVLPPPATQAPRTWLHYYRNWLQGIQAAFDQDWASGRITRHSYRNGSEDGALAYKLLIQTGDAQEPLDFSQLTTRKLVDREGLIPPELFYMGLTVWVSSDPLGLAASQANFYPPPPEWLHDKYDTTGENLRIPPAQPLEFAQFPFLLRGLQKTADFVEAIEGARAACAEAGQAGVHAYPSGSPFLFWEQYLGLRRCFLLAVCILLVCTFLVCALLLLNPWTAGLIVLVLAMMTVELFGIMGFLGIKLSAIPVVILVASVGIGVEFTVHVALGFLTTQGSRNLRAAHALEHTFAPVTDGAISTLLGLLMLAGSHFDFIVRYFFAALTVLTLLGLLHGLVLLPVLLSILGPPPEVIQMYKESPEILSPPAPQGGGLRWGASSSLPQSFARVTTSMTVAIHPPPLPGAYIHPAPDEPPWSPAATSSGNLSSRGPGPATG

Assays:
[1] = target: human Ptch-2 (SEQ ID NO:2), overexpressed on transfected human 293 embryonic kidney cells (human) (UniProt Q9Y6C5); assay: 125I-Shh competition on transfected 293 cells (FIG. 7A legend)
[2] = target: human Ptch-2 (SEQ ID NO:2), overexpressed on transfected human 293 embryonic kidney cells (human) (UniProt Q9Y6C5); assay: 125I-Shh competition on transfected 293 cells

binding [1]: binds | binding [2]: binds
Substance: Dhh (SEQ ID NO:13) (from UniProt Q61488 23-198) (ligand)
